This series in a line: Taste and smell of verbascoside and isoverbascoside solutions alone. On the procedure:
A sucrose solution (4%) was prepared in water. Each of verbascoside and isoverbascoside solutions of different concentrations was prepared in ethanol solution in water (50%). Verbascoside and isoverbascoside were evaluated at 1 and 200 ppm, respectively.

This is an account of results in US11980211B2, “Verbascoside and related compounds for sweetness enhancement” (International Flavors & Fragrances Inc., priority 2018, dated 2024).

Take `CC1OC(OC2C(O)C(COC(=O)/C=C/c3ccc(O)c(O)c3)OC(OCCc3ccc(O)c(O)c3)C2O)C(O)C(O)C1O` (centres unmarked) [Isoverbascoside, isoverbascoside]: where the note is “compound alone at 200 ppm”, the taste and smell entry is “devoid of taste and smell”. Consider `CC1OC(OC2C(O)C(OCCc3ccc(O)c(O)c3)OC(CO)C2OC(=O)/C=C/c2ccc(O)c(O)c2)C(O)C(O)C1O` [Verbascoside, (E)-2-(3,4-dihydroxyphenyl)ethyl 3-O-(6-deoxy-α-L-mannopyranosyl)-4-[3-(3,4-dihydroxyphenyl)-2-propenoate]-β-D-Glucopyranoside], for which the taste and smell result (compound alone at 1 ppm) is “devoid of taste and smell”.
